Binding data for one substance are collected here from paper PMC7470980, “Mechanism of translation inhibition by type II GNAT toxin AtaT2” (Nucleic Acids Research, 2020).

Results are given in words; binding and its absence hold for the method and conditions named. A result given as binding can be weak or reduced; the word gives no strength.

For assay [1], the target named is AtaR2 antitoxin (Escherichia coli O157:H7 str. Sakai) (UniProt Q8X700). Kind of assay: SEC; both purified. (Size exclusion chromatography separates by hydrodynamic size, large species first.)
For assay [2] the target is unchanged. In words: tandem affinity purification.

For the substance “AtaT2 toxin (from UniProt Q8X6Z9) (enzyme)”, the binding entry in assay [1] and in assay [2] was “binds” throughout.
